Reference: paper PMC7819943, “Rice protein-binding microarrays: a tool to detect cis-acting elements near promoter regions in rice”
Some of the results follow.

Amino acid sequences for entries named in this document (tags omitted).
UniProt Q0JBA9, entry or part of it: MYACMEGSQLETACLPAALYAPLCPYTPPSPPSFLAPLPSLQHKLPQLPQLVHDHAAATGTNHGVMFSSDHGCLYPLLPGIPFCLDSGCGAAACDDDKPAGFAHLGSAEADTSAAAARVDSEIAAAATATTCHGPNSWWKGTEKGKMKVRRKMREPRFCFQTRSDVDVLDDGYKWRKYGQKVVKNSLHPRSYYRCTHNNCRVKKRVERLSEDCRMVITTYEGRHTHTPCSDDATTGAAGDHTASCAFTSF

target: OsWRKY34 (Oryza sativa, UniProt Q0JBA9 1-250); experiment: protein-binding microarray (RPBM); PBS, 2% BSA, 51.3 ng/ul salmon testes DNA, 50 uM zinc acetate, 200 nM TF, 25 C, 1 h; high values mean tight binding; details: protein: recombinant; tags: N-terminal polyhistidine and DsRed monomer fusion (pET32a); label: CyDye5-dUTP incorporated in the synthesized complementary strand; 3' TTTTT single-stranded linker to array surface; dsDNA, one strand shown
Method in brief: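 Binding signal is defined as the fluorescence intensity of each feature in arbitrary units, read on an Axon 4000B scanner. Transcription factors with N-terminal polyhistidine and DsRed fusions came from E. coli BL21-CodonPlus and were purified on Ni–NTA. They were incubated at 200 nM for 1 h at 25 °C on a custom Agilent array that had been made double-stranded with Cy5-dUTP, with 50 µM zinc acetate present, and the array was washed.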

Sequence	binding signal
CGCAATCGGATTTCATATTGTATCGGCTGTTACTGTGAAGCGGAGTCACCTAGTGCAG	8260 fluorescence intensity (a.u.)
TCAACGCTAGCTACCTACCCGTTGTTGACCAACGCTAATTCGGAGTCACCTAGTGCAG	9590 fluorescence intensity (a.u.)
CGGCTACTTTAGCCGCGAACTCCCTTAACATTTCCCACCTCGGAGTCACCTAGTGCAG	8480 fluorescence intensity (a.u.)
AACTATACCAACGTTCTATCTCCTTTGATGTCATGACATCCGGAGTCACCTAGTGCAG	11000 fluorescence intensity (a.u.)
ATAATTTCATGAGTATTGTTGACTGTAGTATATACATTAGCGGAGTCACCTAGTGCAG	8230 fluorescence intensity (a.u.)
TCTCATCCGTCCGTCCATCATCTCATCTAATCTATCCGTCCGGAGTCACCTAGTGCAG	10300 fluorescence intensity (a.u.)
CACCCTTTCTGTGCCCCGTTTTGTCGTCTTTGGAAGCGACCGGAGTCACCTAGTGCAG	8760 fluorescence intensity (a.u.)
GCAGGTCGCGGCGTTCATCTCATCACTCATCAGGGTTTGTCGGAGTCACCTAGTGCAG	8180 fluorescence intensity (a.u.)
GGGGTGCACATGACACGACTGCTTCCGCGTTTCTTCTCGGCGGAGTCACCTAGTGCAG	9540 fluorescence intensity (a.u.)
TGGCTGAACAGAACACTAGAATAGGGGAGGGGCGGCGATCCGGAGTCACCTAGTGCAG	9380 fluorescence intensity (a.u.)
GGGGCCTCATCTTTTCGCTTATGTTTATATTTATCAACCACGGAGTCACCTAGTGCAG	12500 fluorescence intensity (a.u.)
ATATACACATTCTCCCATTGCTATATTATCTGTATTCTGACGGAGTCACCTAGTGCAG	13400 fluorescence intensity (a.u.)
CACTTGCAATCCTACCAAAATCTCGTGTTTTTCCTATTCCCGGAGTCACCTAGTGCAG	11100 fluorescence intensity (a.u.)
TCAAGAACCATAAAATTGCTCATTTTATAATTATCCTTTTCGGAGTCACCTAGTGCAG	8380 fluorescence intensity (a.u.)
TGTATTTTTCTTTCATAACTTGTATACTTGTATGTATTTGCGGAGTCACCTAGTGCAG	11200 fluorescence intensity (a.u.)
TTCTCATACTCGTTGGCTCGTTGCTCCTTTGCATCAAATGCGGAGTCACCTAGTGCAG	8230 fluorescence intensity (a.u.)
CCCACCTACAAGAAATCATTTCTACGACGCCTGCTACCTTCGGAGTCACCTAGTGCAG	8690 fluorescence intensity (a.u.)
CCTACACACGAAACCTCCGCGCCTCATCCGGGCTTCGCGACGGAGTCACCTAGTGCAG	10600 fluorescence intensity (a.u.)
CAACCTATAACTTCGCCGTAAGCTCCTCTTCGTTTTCTCTCGGAGTCACCTAGTGCAG	8570 fluorescence intensity (a.u.)
TGCTGCTGCGATGGGAGGCCGGGAGGAGGGGCGGGGCGGCCGGAGTCACCTAGTGCAG	15400 fluorescence intensity (a.u.)
CACTATACACCGCTGCTTGAATGCTGCCATGGTTCCAGCTCGGAGTCACCTAGTGCAG	8760 fluorescence intensity (a.u.)

Sequence	binding signal
GTCCACAGCAAGATGCATGTCTTCGTCCACTAGCTATTTTCGGAGTCACCTAGTGCAG	8480 fluorescence intensity (a.u.)
CTGCTTCCTCTTTCTTCTTCTTCTTCTGCTCTTTCTTCTTCGGAGTCACCTAGTGCAG	10000 fluorescence intensity (a.u.)
CTCTATTCGTTTTTCATATTATAAGTCGTTTGACGTTTTTCGGAGTCACCTAGTGCAG	9170 fluorescence intensity (a.u.)
TTGCCCCATGCCATTGCTCTAGCTTGCCACCAACTCGAGCCGGAGTCACCTAGTGCAG	8090 fluorescence intensity (a.u.)
AGACGCAAGACCACACACACACATACACATCCGCTGATAACGGAGTCACCTAGTGCAG	8180 fluorescence intensity (a.u.)
TTGGTTTTTATTCAATCTCTTCTCTATCTCTATTATTATACGGAGTCACCTAGTGCAG	10300 fluorescence intensity (a.u.)
TATTTTCGCTTCTACTTATATATGTTGAGTTTGAATTTGTCGGAGTCACCTAGTGCAG	12300 fluorescence intensity (a.u.)
ACTGTGAGTGGACTTATTCCTTTAATTTACAATCTACATGCGGAGTCACCTAGTGCAG	8830 fluorescence intensity (a.u.)
AAAGATCTCGCTCGCCGCCGCCTCTGTACTGACTCGACTCCGGAGTCACCTAGTGCAG	13200 fluorescence intensity (a.u.)
CCGCGTCCAATGTTTGATCGTCTGTCTTATTTGAAAATTTCGGAGTCACCTAGTGCAG	9110 fluorescence intensity (a.u.)
GCACTACGGCTACCTCACCATTATGCTTCACCATCGACTCCGGAGTCACCTAGTGCAG	11900 fluorescence intensity (a.u.)
GCCGCATTTAAGCGCTCTCCGGCCTAACTGTCCTATGCGCCGGAGTCACCTAGTGCAG	8220 fluorescence intensity (a.u.)
CCTGTGATGTGTGTAAAATTTGTGTGCCCGTCAAAGATGACGGAGTCACCTAGTGCAG	8710 fluorescence intensity (a.u.)
CCACCATGTATTCCTTGGCAGTGCTCCGCGAGTGATCAGCCGGAGTCACCTAGTGCAG	8790 fluorescence intensity (a.u.)
GTAACTTGTCTATCTGTTTTGCTTTCTCAGCTAAATATCCCGGAGTCACCTAGTGCAG	10800 fluorescence intensity (a.u.)
GGCCTGTTCAGCTCGGTGGTGGTGGTGTTGTTGGTGGTGCCGGAGTCACCTAGTGCAG	8770 fluorescence intensity (a.u.)
GTTTGGTTTATTTCCCGAACAAGGGAAACAACGGGGCGGGCGGAGTCACCTAGTGCAG	10400 fluorescence intensity (a.u.)
TGGGATGGGCTCGTGGTTTAGTTCGTGTCGATTTGACTGTCGGAGTCACCTAGTGCAG	11900 fluorescence intensity (a.u.)
CACTGCACAGATCATCCATCACCTGCAGCATTTGCCTTCTCGGAGTCACCTAGTGCAG	9060 fluorescence intensity (a.u.)
AAATCAGCACCCCGCGCGCACTGCTTGCTCGCCATCGCTCCGGAGTCACCTAGTGCAG	8180 fluorescence intensity (a.u.)
TGGTTATGTTGGTTTGCTTGCTGCTTTATTGGACTGAGATCGGAGTCACCTAGTGCAG	8090 fluorescence intensity (a.u.)

Sequence	binding signal
TCCTGTTGTCGCCGTTGTTGTTATACCCAGTCAAATCCCCCGGAGTCACCTAGTGCAG	8360 fluorescence intensity (a.u.)
ACTAGTGGGCTGCTTGGGTGGGGAGCCCGGGCCGGCAGATCGGAGTCACCTAGTGCAG	12000 fluorescence intensity (a.u.)
TGCTAATTTGGATGGTGGTAGTTGAATTCAAGTGGGTTGACGGAGTCACCTAGTGCAG	9120 fluorescence intensity (a.u.)
CCCGCTCGCACTTTCGCAGAAACACCCCTCACCGACCCCGCGGAGTCACCTAGTGCAG	8660 fluorescence intensity (a.u.)
ATTCAACAGCTACATTTCTGTAATTTATGTTTAAGTTTTACGGAGTCACCTAGTGCAG	9960 fluorescence intensity (a.u.)
TTTGGGCCGGGTTTTTGGTTTCTTCCTTTTTTTTTCTGGGCGGAGTCACCTAGTGCAG	12600 fluorescence intensity (a.u.)
ACTTTTCACCCTGTTACATCAAATGTTTGGACACACGCATCGGAGTCACCTAGTGCAG	8850 fluorescence intensity (a.u.)
CCAACTCGTCTCTGTGTCTCTCTTTCTGTACTTTTCTTTCCGGAGTCACCTAGTGCAG	9660 fluorescence intensity (a.u.)
TGTGTGCTGACAGTTCATTTTCCTTGTGTTGTGCTGTTGTCGGAGTCACCTAGTGCAG	9330 fluorescence intensity (a.u.)
GTTTGATCATCCATCTTATTTAAAAAATTTATGAAAAAATCGGAGTCACCTAGTGCAG	9060 fluorescence intensity (a.u.)
ATGACTACTACATTGCAGCTGCTCTTCTTACAGACATAGACGGAGTCACCTAGTGCAG	9780 fluorescence intensity (a.u.)
GAAATGATGTAGCCCATTCTTCTCTCTTTCTTTCTATTTTCGGAGTCACCTAGTGCAG	13000 fluorescence intensity (a.u.)
CGCGCTCGTTGACTGACCTGACCTGTTCGATGTGCTTGACCGGAGTCACCTAGTGCAG	10800 fluorescence intensity (a.u.)
AGGGGTAGGATTTACGTGCGTGCGTTTTTTAGGGGTGAGTCGGAGTCACCTAGTGCAG	10400 fluorescence intensity (a.u.)
GCTCTCTCTCTCTTCTCCTCCTCCTCATCTCGGCAAAACCCGGAGTCACCTAGTGCAG	8390 fluorescence intensity (a.u.)
TACGGTCCAAACTATCTCCCTACTTTTCTTCTTCCGTAAACGGAGTCACCTAGTGCAG	13800 fluorescence intensity (a.u.)
AAGTTTCAATGCAGGAGGTCACATGTTTTCTTTATTTGCACGGAGTCACCTAGTGCAG	10200 fluorescence intensity (a.u.)
TTTCGATCTGTTGTTTTATCTTTCTTTTCTTTTTTCTTTTCGGAGTCACCTAGTGCAG	13000 fluorescence intensity (a.u.)
GCCGGCGCCGCGCCTCCCCACCGTCCCCGCCGCCGTCCGCCGGAGTCACCTAGTGCAG	9900 fluorescence intensity (a.u.)
GGACGGCGGCGAGCGGCGAGGAGGAGGCGGGGAGGTGGGACGGAGTCACCTAGTGCAG	9580 fluorescence intensity (a.u.)
ACCTGCTCAGTATTTTAACCCTATCACTGCCTGCCACGATCGGAGTCACCTAGTGCAG	10900 fluorescence intensity (a.u.)

Sequence	binding signal
CTGCTAAAAGTTTTCGGTTTTTGGGTATACCAACCATTCACGGAGTCACCTAGTGCAG	8260 fluorescence intensity (a.u.)
TCGCTAGGAGTGGTGGTGGTGGTGGGAGGAGGAGGCGATGCGGAGTCACCTAGTGCAG	13000 fluorescence intensity (a.u.)
GTGTTTATTACCCGGTAGATCTGTATATTGTAGATGCATGCGGAGTCACCTAGTGCAG	8260 fluorescence intensity (a.u.)
ACACCAATACATATGCCACAAATTTACAGATCTAGATTCACGGAGTCACCTAGTGCAG	8420 fluorescence intensity (a.u.)
ACTCTACAAGTCGACATTAACGTTGTGACAGTGTTTCTTTCGGAGTCACCTAGTGCAG	8980 fluorescence intensity (a.u.)
TATATCGGGACATATGAGGGTGTAGTACTTTGGTAGTGTTCGGAGTCACCTAGTGCAG	8640 fluorescence intensity (a.u.)
TGGGTTTCGATTTTAGCAAATATCCTTGTAACTATTATTACGGAGTCACCTAGTGCAG	9170 fluorescence intensity (a.u.)
AATCCTGAAGCCCGGCCCACCCAAGCTACCTAGCTCTCGACGGAGTCACCTAGTGCAG	9000 fluorescence intensity (a.u.)
ACCAATGAAGGGGTGGGCATTCGGTCTTTCGGTCATTTCGCGGAGTCACCTAGTGCAG	12600 fluorescence intensity (a.u.)
GTCCACCACCCACCTCGTACGTGTTCTGTCCACACACGCGCGGAGTCACCTAGTGCAG	10200 fluorescence intensity (a.u.)
GCAACCATAGTTTTTCGCGCTCAACTTTAATCATTCGTCTCGGAGTCACCTAGTGCAG	8790 fluorescence intensity (a.u.)
GAGAGGTGGAGATCAGGAAACAGGGGAGGGAGAGAGGTTTCGGAGTCACCTAGTGCAG	13700 fluorescence intensity (a.u.)
GGCTTTACTTGTCATGTGCTCTTGTTAATATTCTCTGTTGCGGAGTCACCTAGTGCAG	12700 fluorescence intensity (a.u.)
ACTCATTATCATTGGCCTCTCACGTTTCCATGGAAATATTCGGAGTCACCTAGTGCAG	9140 fluorescence intensity (a.u.)
CCGCGCTACCCATCGACCGATCCTACTCGCACGCGCACACCGGAGTCACCTAGTGCAG	9510 fluorescence intensity (a.u.)
TGTGTGGTCTGGCCTTTCTCTTCTCTCTCAAGACAGCGTTCGGAGTCACCTAGTGCAG	9380 fluorescence intensity (a.u.)
TCCACGACAGTTCACATTACAACTCTCTCTCTCTTGTCTGCGGAGTCACCTAGTGCAG	9560 fluorescence intensity (a.u.)
ATGTTTTTGAAAATCTTTGGTGGACTTTCTTAATGTTTTTCGGAGTCACCTAGTGCAG	8170 fluorescence intensity (a.u.)
CACCCTGACCCAATTTGTGAATTCCAATTGATTTTAGTTACGGAGTCACCTAGTGCAG	8140 fluorescence intensity (a.u.)
CCCACTCCATATACATGTGCCTCTCTTGTCCTGTATATATCGGAGTCACCTAGTGCAG	9950 fluorescence intensity (a.u.)
TAACTTTACACCATCTTTTGCCTACCTTTTACCTTTACCTCGGAGTCACCTAGTGCAG	8320 fluorescence intensity (a.u.)

In a second layout: results already given

| Sequence | binding signal |
| --- | --- |
| CAACCTATAACTTCGCCGTAAGCTCCTCTTCGTTTTCTCTCGGAGTCACCTAGTGCAG | 8570 fluorescence intensity (a.u.) |
| GTCCACAGCAAGATGCATGTCTTCGTCCACTAGCTATTTTCGGAGTCACCTAGTGCAG | 8480 fluorescence intensity (a.u.) |
| TTGGTTTTTATTCAATCTCTTCTCTATCTCTATTATTATACGGAGTCACCTAGTGCAG | 10300 fluorescence intensity (a.u.) |
| GTTTGGTTTATTTCCCGAACAAGGGAAACAACGGGGCGGGCGGAGTCACCTAGTGCAG | 10400 fluorescence intensity (a.u.) |
| TGGGTTTCGATTTTAGCAAATATCCTTGTAACTATTATTACGGAGTCACCTAGTGCAG | 9170 fluorescence intensity (a.u.) |
